From publication PMC10848721

B1: Halo-TMEM55B [not stated] / RILPL1 (found with overexpressed TMEM55B or TMEM55A) [not stated] (parent)
chain 1: MAADGERSPLLSEPIDGGAGGNGLVGPGGSGAGPGGGLTPSAPPYGAGKHAPPQAFPPFPEGHPAVLPGEDPPPYSPLTSPDSGSAPMITCRVCQSLINVEGKMHQHVVKCGVCNEATPIKNAPPGKKYVRCPCNCLLICKVTSQRIACPRPYCKRIINLGPVHPGPLSPEPQPMGVRVICGHCKNTFLWTEFTDRTLARCPHCRKVSSIGRRYPRKRCICCFLLGLLLAVTATGLAFGTWKHARRYGGIYAAWAFVILLAVLCLGRALYWACMKVSHPVQNFS
chain 2: MEEERGSALAAESALEKNVAELTVMDVYDIASLVGHEFERVIDQHGCEAIARLMPKVVRVLEILEVLVSRHHVAPELDELRLELDRLRLERMDRIEKERKHQKELELVEDVWRGEAQDLLSQIAQLQEENKQLMTNLSHKDVNFSEEEFQKHEGMSERERQVMKKLKEVVDKQRDEIRAKDRELGLKNEDVEALQQQQTRLMKINHDLRHRVTVVEAQGKALIEQKVELEADLQTKEQEMGSLRAELGKLRERLQGEHSQNGEEEPETEPVGEESISDAEKVAMDLKDPNRPRFTLQELRDVLHERNELKSKVFLLQEELAYYKSEEMEEENRIPQPPPIAHPRTSPQPESGIKRLFSFFSRDKKRLANTQRNVHIQESFGQWANTHRDDGYTEQGQEALQHL
B2: RILPL1-GFP WT [not stated] / endogenous TMEM55B [human (endogenous in HEK293)] (parent)
chain 1: B1 chain 2
chain 2: B1 chain 1

Variants of: B1
Test: co-immunoprecipitation (Halo IP), quantitative immunoblot (LI-COR)
Conditions: HEK293 cells co-transfected with FLAG-LRRK2 Y1699C and HA-Rab8A Q67L, lysed 24 hours after transfection, parent: 370, read off a plot

response | Variant
260 | chain 1 K141E
120 | chain 1 V108T
60 | chain 1 A117S

Variants of: B2
Test: co-immunoprecipitation (GFP IP), quantitative immunoblot (LI-COR)
Conditions: with endogenous TMEM55B [human (endogenous in HEK293)]; HEK293 cells co-transfected with FLAG-LRRK2 Y1699C and HA-Rab8A Q67L, lysed 24 hours after transfection; parent: 700; read off a plot

response | Variant
360 | chain 1 L403A
760 | chain 1 Q401A
640 | chain 1 G391A
350 | chain 1 Q395A
130 | chain 1 E398K
690 | chain 1 H402A
130 | chain 1 A399L
110 | chain 1 E394K
360 | chain 1 T393A
270 | chain 1 L400A
240 | chain 1 Q397A
610 | chain 1 G396A
640 | chain 1 Y392A
